Values quoted from earlier work as cited in patent publication US11850291B2, “PSMA targeted radiotherapy medicine and preparation method thereof” (NATIONAL ATOMIC RESEARCH INSTITUTE, priority 2019, dated 2023).

Assays:
[1] = tested on: prostate cancer (PCa) bone metastasis; conditions: clinical studies

Compound | sensitivity for primary prostate cancer (prostate cancer (PCa); PET compared with MRI, Yamaguchi 2005) | positive rate of PET diagnosis of prostate cancer (prostate cancer (PCa); in vivo) | sensitivity of tumor diagnosis (prostate cancer (PCa); in vivo) | specificity of tumor diagnosis (prostate cancer (PCa); in vivo) | sensitivity for prostate cancer bone metastasis [1] | specificity for prostate cancer bone metastasis [1]
C[N+](C)([11CH3])CCO [C-11-Choline] | ~100% | 47% | – | – | – | –
C[N+](C)(C[18F])CCO [F-18-FECH, N-[F-18]fluoromethyl choline] | – | – | 84.7% | 91.1% | – | –
[18F-].[Na+] [F-18-NaF] | – | 27% | – | – | 93% | 54%
